# Data as given in PubChem BioAssay AID1224826 (NIAID, 2016).
# Assay: 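Regulators of Tlr4 signalling leading to Tnf-alpha expression in macrophages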 (primary screen)
# System: RAW264.7 G9 macrophages from mouse bearing reporters for p65 (GFP) and the Tnf promoter (mCherry)
# Reagents: siRNA pool against mouse genes, 100 nM
# Duration: 16 h of LPS stimulation, after 2 days of siRNA transfection
# Treatment: bacterial lipopolysaccharide (Salmonella minnesota R595), 10 ng/ml
# Detection: 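Imaged Tnf reporter mCherry in nuclei, minus background, normalised per plate to the median and expressed as robust z-scores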
# Direction: Tnf reporter robust z-score: higher = stronger Tnf promoter reporter signal after LPS; Tnf reporter intensity: higher = stronger Tnf promoter reporter signal
# Hit rule: 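a well counts as active at a score of -1.3 or below (Tlr4 knock-down control median) or above 3 (raised signal); controls and wells holding fewer than 50 cells are excluded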
# Meaning of the calls: active = Tnf reporter clearly lowered or raised; inactive = no clear change in Tnf reporter
# Here is an unselected part of about 17,000 deposited reagents. About 1,110 of them (6.6%) count as active. 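Active means lowered or raised reporter signal; replicate intensities are raw and not normalised per plate.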
target,Tnf reporter robust z-score,fewer than 50 cells in well,"Tnf reporter intensity, replicate 1","Tnf reporter intensity, replicate 2",call
Rmdn2 (regulator of microtubule dynamics 2),-1.22,enough cells in well,110,88.5,inactive
Hexb (hexosaminidase B),-0.49,enough cells in well,234,126,inactive
Scd1 (stearoyl-Coenzyme A desaturase 1),-1.31,enough cells in well,179,111,active
Xcr1 (chemokine (C motif) receptor 1),0.06,enough cells in well,310,40.2,inactive
Nop14 (NOP14 nucleolar protein),0.24,enough cells in well,268,76.6,inactive
Dynll1 (dynein light chain LC8-type 1),-0.73,enough cells in well,187,144,inactive
"Atp6v0d2 (ATPase, H+ transporting, lysosomal V0 subunit D2)",1.01,enough cells in well,219,230,inactive
Paxx (non-homologous end joining factor),-0.75,enough cells in well,132,181,inactive
Cxcl16 (C-X-C motif chemokine ligand 16),-0.57,enough cells in well,144,148,inactive
Npepps (aminopeptidase puromycin sensitive),-0.6,enough cells in well,179,168,inactive
Efcab5 (EF-hand calcium binding domain 5),-0.07,enough cells in well,192,68.9,inactive
Rdh14 (retinol dehydrogenase 14 (all-trans and 9-cis)),1.98,enough cells in well,211,216,inactive
"Ap1g1 (adaptor protein complex AP-1, gamma 1 subunit)",-1.47,enough cells in well,103,95.3,active
"Ets1 (Ets proto-oncogene 1, transcription factor)",1.67,enough cells in well,316,406,inactive
Tmem37 (transmembrane protein 37),0.26,enough cells in well,155,126,inactive
"Celf3 (CUGBP, Elav-like family member 3)",0.78,enough cells in well,157,110,inactive
Gngt1,1.76,enough cells in well,391,262,inactive
"Ptpn5 (protein tyrosine phosphatase, non-receptor type 5)",-0.55,enough cells in well,161,130,inactive
Ecd (ecdysoneless cell cycle regulator),0.26,enough cells in well,168,176,inactive
Egln3 (egl-9 family hypoxia-inducible factor 3),-0.6,enough cells in well,118,112,inactive
Pacrgl (PARK2 co-regulated-like),-0.06,enough cells in well,157,160,inactive
"Col8a2 (collagen, type VIII, alpha 2)",,fewer than 50 cells per well; well left out of calls,0,97.8,inactive
Slc33a2,,fewer than 50 cells per well; well left out of calls,90.2,85.4,inactive
Gm4836 (predicted gene 4836),-1.5,enough cells in well,53.1,60.2,active
Gli3 (GLI-Kruppel family member GLI3),,fewer than 50 cells per well; well left out of calls,78.2,85.6,inactive
Abhd18 (abhydrolase domain containing 18),1.46,enough cells in well,246,106,inactive
Ppip5k2 (diphosphoinositol pentakisphosphate kinase 2),-0.41,enough cells in well,132,130,inactive
Dmwd (dystrophia myotonica-containing WD repeat motif),0.75,enough cells in well,261,265,inactive
H1f8 (H1.8 linker histone),-0.88,enough cells in well,194,101,inactive
Rps5 (ribosomal protein S5),-0.94,enough cells in well,207,143,inactive
Tmem203 (transmembrane protein 203),1.31,enough cells in well,222,275,inactive
Prpsap1 (phosphoribosyl pyrophosphate synthetase-associated protein 1),2.29,enough cells in well,397,237,inactive
Rpl14 (ribosomal protein L14),,fewer than 50 cells per well; well left out of calls,75.6,41,inactive
Hdac7 (histone deacetylase 7),-1.42,enough cells in well,142,81.9,active
Bdnf (brain derived neurotrophic factor),0.6,enough cells in well,174,195,inactive
"Fars2 (phenylalanine-tRNA synthetase 2, mitochondrial)",0.01,enough cells in well,239,143,inactive
Rad18 (RAD18 E3 ubiquitin protein ligase),0.32,enough cells in well,349,223,inactive
Pitx3 (paired-like homeodomain transcription factor 3),0.61,enough cells in well,298,230,inactive
Or8s8 (olfactory receptor family 8 subfamily S member 8),-0.07,enough cells in well,180,90.6,inactive
Hmgxb3 (HMG box domain containing 3),-0.75,enough cells in well,122,120,inactive
Tbx18 (T-box18),0,enough cells in well,159,181,inactive
Ak9 (adenylate kinase 9),-0.16,enough cells in well,173,164,inactive
Aqp11 (aquaporin 11),-0.62,enough cells in well,147,119,inactive
Optc (opticin),1.23,enough cells in well,195,201,inactive
Bahcc1 (BAH domain and coiled-coil containing 1),1.43,enough cells in well,6.36,246,inactive
Or11q2 (olfactory receptor family 11 subfamily Q member 2),-0.35,enough cells in well,182,90.9,inactive
Zfp598 (zinc finger protein 598),3.09,enough cells in well,252,256,active
4933405O20Rik (RIKEN cDNA 4933405O20 gene),-0.38,enough cells in well,152,57.8,inactive
Plin4 (perilipin 4),-0.59,enough cells in well,129,75.5,inactive
"H2-M1 (histocompatibility 2, M region locus 1)",0.6,enough cells in well,276,210,inactive
A630001G21Rik (RIKEN cDNA A630001G21 gene),0.45,enough cells in well,175,201,inactive
Lcn3 (lipocalin 3),-0.96,enough cells in well,102,108,inactive
Ucn3 (urocortin 3),,fewer than 50 cells per well; well left out of calls,72.7,67.9,inactive
Ndufa12 (NADH:ubiquinone oxidoreductase subunit A12),,fewer than 50 cells per well; well left out of calls,252,49.3,inactive
"Ifi27l2b (interferon, alpha-inducible protein 27 like 2B)",,fewer than 50 cells per well; well left out of calls,132,44.3,inactive
C230071H18Rik (retired record),,fewer than 50 cells per well; well left out of calls,138,133,inactive
Mink1 (misshapen-like kinase 1 (zebrafish)),0.46,enough cells in well,235,178,inactive
"Gapt (Grb2-binding adaptor, transmembrane)",-0.24,enough cells in well,166,174,inactive

Active calls, of those listed so far:
target,Tnf reporter robust z-score,fewer than 50 cells in well,"Tnf reporter intensity, replicate 1","Tnf reporter intensity, replicate 2",call
Scd1 (stearoyl-Coenzyme A desaturase 1),-1.31,enough cells in well,179,111,active
"Ap1g1 (adaptor protein complex AP-1, gamma 1 subunit)",-1.47,enough cells in well,103,95.3,active
Gm4836 (predicted gene 4836),-1.5,enough cells in well,53.1,60.2,active
Hdac7 (histone deacetylase 7),-1.42,enough cells in well,142,81.9,active
Zfp598 (zinc finger protein 598),3.09,enough cells in well,252,256,active
